{
  "source": "PubChem BioAssay",
  "key": {"[1]": {"test": "PubChem AID 1586", "conditions": "yeast two-hybrid polyglutamine protein interaction, reporter readout; measured here: averaged growth delta OD"}, "[2]": {"test": "enhancers of SMN2 over SMN1 splicing, cell-based, SMN2/SMN1 luciferase reporters (AID 1598)", "conditions": "SMN2 vs SMN1 luciferase splicing reporter cells, at 10 µM; SMN1 luciferase ratio: measured here: SMN1 luciferase reporter average; SMN2 luciferase ratio: measured here: SMN2 luciferase reporter average, stronger effect = higher value"}, "[3]": {"test": "protection against mutant huntingtin cytotoxicity, PC12 cells, LDH release (AID 1610)", "conditions": "PC12 mutant huntingtin toxicity, final LDH at 4 uM, stronger effect = lower value"}},
  "note": "The other results are listed elsewhere or left out. These are further read-outs of the screen, such as a control signal, another cell line or another target. No call is given for them. For part of these data: The list favours compounds with an active or inconclusive main result. Square brackets hold non-standard residues; d marks the D form. Side chains are listed from the residue outwards. Peptide text beside a SMILES is read from it. * marks the point of attachment. X1 = CCC(C)C(N)C1=NC(C(=O)*)CS1; Orn = NCCC[CH](N)C(=O)O",
  "data": [
    {"compound": "NCc1ccc(S(N)(=O)=O)cc1", "values": [
      {"measurement": "signal change (36 h minus 0 h)", "setting": "[1]", "result": 0.141},
      {"measurement": "SMN1 luciferase ratio", "setting": "[2]", "result": 0.8},
      {"measurement": "SMN2 luciferase ratio", "setting": "[2]", "result": 0.74},
      {"measurement": "normalised LDH release", "setting": "[3]", "result": 0.958}
    ]},
    {"compound": "CC[C@H](C)C(=O)O[C@H]1CCC=C2C=C[C@H](C)C(CCC3C[C@@H](O)CC(=O)O3)[C@H]21", "note": "(stereo partly specified)", "values": [
      {"measurement": "signal change (36 h minus 0 h)", "setting": "[1]", "result": -0.112},
      {"measurement": "SMN1 luciferase ratio", "setting": "[2]", "result": 1.12},
      {"measurement": "SMN2 luciferase ratio", "setting": "[2]", "result": 1.06},
      {"measurement": "normalised LDH release", "setting": "[3]", "result": 1.68}
    ]},
    {"compound": "Cc1ccccc1N1C(=O)c2cc(S(N)(=O)=O)c(Cl)cc2NC1C", "note": "(stereo unspecified)", "values": [
      {"measurement": "signal change (36 h minus 0 h)", "setting": "[1]", "result": 0.207},
      {"measurement": "SMN1 luciferase ratio", "setting": "[2]", "result": 0.85},
      {"measurement": "SMN2 luciferase ratio", "setting": "[2]", "result": 0.88},
      {"measurement": "normalised LDH release", "setting": "[3]", "result": 0.951}
    ]},
    {"compound": "Cn1nnnc1SCC1=C(C(=O)O)N2C(=O)C(NC(=O)C(OC=O)c3ccccc3)C2SC1", "note": "(stereo unspecified)", "values": [
      {"measurement": "signal change (36 h minus 0 h)", "setting": "[1]", "result": 0.078},
      {"measurement": "SMN1 luciferase ratio", "setting": "[2]", "result": 0.94},
      {"measurement": "SMN2 luciferase ratio", "setting": "[2]", "result": 0.84},
      {"measurement": "normalised LDH release", "setting": "[3]", "result": 0.864}
    ]},
    {"compound": "CCC(C)C(N)C1=NC(C(=O)NC(CC(C)C)C(=O)NC(CCC(=O)O)C(=O)NC(C(=O)NCCCCC2NC(=O)C(CC(N)=O)NC(=O)C(CC(=O)O)NC(=O)C(Cc3cnc[nH]3)NC(=O)C(Cc3ccccc3)NC(=O)C(C(C)CC)NC(=O)C(CCCN)NC2=O)C(C)CC)CS1", "note": "(stereo not drawn) (cyclo(DNK([Ile-Glu-Leu-X1])[Orn]IFH); configuration not given here)", "values": [
      {"measurement": "signal change (36 h minus 0 h)", "setting": "[1]", "result": 0.12},
      {"measurement": "SMN1 luciferase ratio", "setting": "[2]", "result": 0.84},
      {"measurement": "SMN2 luciferase ratio", "setting": "[2]", "result": 0.83},
      {"measurement": "normalised LDH release", "setting": "[3]", "result": 0.794}
    ]},
    {"compound": "NC[C@@H]1O[C@H](O[C@@H]2[C@@H](CO)OC(O[C@@H]3[C@@H](O)[C@H](N)C[C@H](N)[C@H]3OC3O[C@H](CO)[C@@H](O)[C@H](O)[C@H]3N)[C@@H]2O)[C@H](N)[C@@H](O)[C@@H]1O", "note": "(stereo partly specified)", "values": [
      {"measurement": "signal change (36 h minus 0 h)", "setting": "[1]", "result": 0.116},
      {"measurement": "SMN1 luciferase ratio", "setting": "[2]", "result": 0.89},
      {"measurement": "SMN2 luciferase ratio", "setting": "[2]", "result": 0.94},
      {"measurement": "normalised LDH release", "setting": "[3]", "result": 1.12}
    ]},
    {"compound": "Cc1noc(NS(=O)(=O)c2ccc(N)cc2)c1C", "values": [
      {"measurement": "signal change (36 h minus 0 h)", "setting": "[1]", "result": 0.106},
      {"measurement": "SMN1 luciferase ratio", "setting": "[2]", "result": 0.9},
      {"measurement": "SMN2 luciferase ratio", "setting": "[2]", "result": 0.94},
      {"measurement": "normalised LDH release", "setting": "[3]", "result": 0.499}
    ]},
    {"compound": "CCOC(N)=O", "values": [
      {"measurement": "signal change (36 h minus 0 h)", "setting": "[1]", "result": 0.164},
      {"measurement": "SMN1 luciferase ratio", "setting": "[2]", "result": 0.87},
      {"measurement": "SMN2 luciferase ratio", "setting": "[2]", "result": 0.93},
      {"measurement": "normalised LDH release", "setting": "[3]", "result": 0.822}
    ]},
    {"compound": "C=NC(C(=O)NC1C(=O)N2C1SC(C)(C)C2C(=O)O)c1ccccc1", "note": "(stereo unspecified)", "values": [
      {"measurement": "signal change (36 h minus 0 h)", "setting": "[1]", "result": 0.18},
      {"measurement": "SMN1 luciferase ratio", "setting": "[2]", "result": 0.86},
      {"measurement": "SMN2 luciferase ratio", "setting": "[2]", "result": 0.96},
      {"measurement": "normalised LDH release", "setting": "[3]", "result": 0.729}
    ]}
  ]
}
